Reference: patent US9187784B2 (VIB VZW, priority 2011, dated 2015)
Where a sequence shows no end group, the ends are not given.

Experiment: peptide made by a vendor
Conditions: whole synthesis

Sequence: KYLPYWPVLSSL
- purity (crude or final not stated): 95% purity
